According to the supplement of paper PMC12542422:
Structures can show the parent of a compound that is named as a salt. ± gives the standard deviation of the averaged measurements. Some of the results follow. Values are raw readings; no control value is given beside them.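 HeLa cells imaged for ribosome-assembly readouts (ENP1 staining with or without export block, or inducible tagged ribosomal protein reporters); machine learning classified each cell's signal location against solvent (DMSO) controls. Hits exceeded the DMSO false-positive mean by five standard deviations, then were visually confirmed; three biological replicates.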

What was measured:
[1] = tested on: HeLa K (ENP1 immunofluorescence, +LMB); test: fraction of cells with nucleolar or nucleolar/nucleoplasmic ENP1 signal (MainHitrate); higher = more cells with nucleolar/nuclear readout signal (for ENP1 -LMB: less RNAPI inhibition; for +LMB ENP1 and RP reporters: stronger nuclear/nucleolar retention, i.e. ribosome biogenesis defect); details: concentration: 1 µM; treatment time: 6 h; ENP1 +LMB; leptomycin B: 20 nM, last 1.5 h
[2] = tested on: HeLa K (ENP1 immunofluorescence, no LMB); test: as above; details: concentration: 1 µM; treatment time: 6 h; ENP1 -LMB; leptomycin B: none
HeLa RPS2-YFP reporter = test: fraction of reporter-positive cells with nuclear (nucleolar or nucleolar/nucleoplasmic) RPS2-YFP (MainHitrate); higher = more cells with nucleolar/nuclear readout signal (for ENP1 -LMB: less RNAPI inhibition; for +LMB ENP1 and RP reporters: stronger nuclear/nucleolar retention, i.e. ribosome biogenesis defect); details: concentration: 1 µM; treatment time: 6 h
HeLa RPL29-GFP reporter = test: fraction of reporter-positive cells with nuclear (nucleolar or nucleolar/nucleoplasmic) RPL29-GFP (MainHitrate); higher = more cells with nucleolar/nuclear readout signal (for ENP1 -LMB: less RNAPI inhibition; for +LMB ENP1 and RP reporters: stronger nuclear/nucleolar retention, i.e. ribosome biogenesis defect); details: concentration: 1 µM; treatment time: 6 h

SMILES	fraction [1]	fraction [2]	fraction of reporter-positive cells with nuclear (HeLa RPS2-YFP reporter)	fraction of reporter-positive cells with nuclear (HeLa RPL29-GFP reporter)
Cc1nnc(NS(=O)(=O)c2ccc(N)cc2)s1 [Sulfamethizole (Proklar)]	0.0757 ± 0.096	0.9951 ± 0.0085	0.116 ± 0.083	0.261 ± 0.14
CCCc1nc(C(C)(C)O)c(C(=O)OCc2oc(=O)oc2C)n1Cc1ccc(-c2ccccc2-c2nnn[nH]2)cc1 [Olmesartan medoxomil (Benicar)]	0.0829 ± 0.081	0.9979 ± 0.0036	0.116 ± 0.062	0.208 ± 0.074
CN1CCC(=C2c3ccccc3CCc3cccnc32)CC1 [Azatadine dimaleate]	0.053 ± 0.065	0.984 ± 0.027	0.143 ± 0.094	0.197 ± 0.03
O=C1CCc2cc(OCCCCc3nnnn3C3CCCCC3)ccc2N1 [Cilostazol]	0.0671 ± 0.037	0.9978 ± 0.0038	0.0693 ± 0.048	0.265 ± 0.1
NCC(=O)CCC(=O)O [5-Aminolevulinic acid hydrochloride]	0.153 ± 0.23	0.991 ± 0.015	0.109 ± 0.054	0.242 ± 0.085
CC1CCc2c(N3CCC(O)CC3)c(F)cc3c(=O)c(C(=O)O)cn1c23 (stereo unspecified) [Nadifloxacin]	0.048 ± 0.051	0.991 ± 0.015	0.09 ± 0.1	0.231 ± 0.027
CCCNC(C)C(=O)Nc1ccccc1C (stereo unspecified) [Prilocaine]	0.098 ± 0.097	0.9988 ± 0.0021	0.0963 ± 0.07	0.207 ± 0.066
[I-].[K+] [Potassium iodide]	0.138 ± 0.19	0.992 ± 0.015	0.136 ± 0.058	0.223 ± 0.1
O=C(N[C@H](CO)[C@H](O)c1ccc([N+](=O)[O-])cc1)C(Cl)Cl [Chloramphenicol (Chloromycetin)]	0.114 ± 0.066	0.9973 ± 0.0046	0.107 ± 0.098	0.184 ± 0.029
N[C@@H]1CN(c2c(F)cc3c(=O)c(C(=O)O)cn([C@@H]4C[C@@H]4F)c3c2Cl)CC12CC2 [Sitafloxacin hydrate]	0.156 ± 0.23	0.991 ± 0.015	0.12 ± 0.067	0.227 ± 0.071
COC(=O)Nc1nc2cc(C(=O)c3ccc(F)cc3)ccc2[nH]1 [Flubendazole (Flutelmium)]	0.0935 ± 0.12	0.986 ± 0.024	0.175 ± 0.08	0.296 ± 0.06
CN1C2CCCC1CC(NC(=O)c1nn(C)c3ccccc13)C2 (stereo unspecified) [Granisetron HCl]	0.054 ± 0.049	0.9985 ± 0.0025	0.102 ± 0.059	0.194 ± 0.081
c1ccc(CN(CC2=NCCN2)c2ccccc2)cc1 [Antazoline HCl]	0.0488 ± 0.068	0.987 ± 0.023	0.124 ± 0.11	0.224 ± 0.063
C=C1CC[C@H](O)C/C1=C/C=C1\CCC[C@]2(C)[C@@H]([C@H](C)/C=C/[C@H](C)C(C)C)CC[C@@H]12 [Vitamin D2]	0.0442 ± 0.051	0.987 ± 0.022	0.108 ± 0.1	0.201 ± 0.019
CC(C(=O)O)c1ccc(-c2ccccc2)c(F)c1 (stereo unspecified) [Flurbiprofen (Ansaid)]	0.0823 ± 0.051	0.998 ± 0.0034	0.104 ± 0.093	0.188 ± 0.035
CC(C)(C)C(=O)C(Oc1ccc(Cl)cc1)n1ccnc1 (stereo unspecified) [Climbazole]	0.0318 ± 0.032	0.985 ± 0.027	0.133 ± 0.087	0.218 ± 0.042
CCOC(=O)C1=C(C)NC(C)=C(C(=O)OC)C1c1cccc(Cl)c1Cl (stereo unspecified) [Felodipine (Plendil)]	0.149 ± 0.22	0.991 ± 0.016	0.0954 ± 0.084	0.248 ± 0.07
NC(=O)CC[C@H](N)C(=O)O [L-Glutamine]	0.0874 ± 0.097	0.9986 ± 0.0025	0.104 ± 0.045	0.211 ± 0.07
CC[C@H]1OC(=O)[C@H](C)[C@@H](O[C@H]2C[C@@](C)(OC)[C@@H](O)[C@H](C)O2)[C@H](C)[C@@H](O[C@@H]2O[C@H](C)C[C@H](N(C)C)[C@H]2O)[C@](C)(O)C[C@@H](C)C(=O)[C@H](C)[C@@H](O)[C@]1(C)O [Erythromycin (E-Mycin)]	0.124 ± 0.12	0.998 ± 0.0034	0.104 ± 0.057	0.202 ± 0.083
Nc1nc2c(ncn2COC(CO)CO)c(=O)[nH]1 [Ganciclovir]	0.104 ± 0.13	0.992 ± 0.013	0.128 ± 0.074	0.216 ± 0.047
COc1cc2c(cc1O)CC[C@@H]1[C@@H]2CC[C@]2(C)[C@@H](O)CC[C@@H]12 [2-Methoxyestradiol]	0.113 ± 0.14	0.993 ± 0.011	0.158 ± 0.089	0.241 ± 0.07
O=C(O)Cc1cc(I)c(Oc2ccc(O)c(I)c2)c(I)c1 [Tiratricol]	0.0486 ± 0.057	0.981 ± 0.032	0.116 ± 0.098	0.188 ± 0.053
COc1ccc(O)cc1 [Mequinol]	0.0988 ± 0.15	0.991 ± 0.015	0.112 ± 0.11	0.226 ± 0.068
O=C(NCCO[N+](=O)[O-])c1cccnc1 [Nicorandil (Ikorel)]	0.134 ± 0.18	0.983 ± 0.03	0.122 ± 0.056	0.24 ± 0.14
O=C(C[S+]([O-])Cc1ccco1)NC/C=C\COc1cc(CN2CCCCC2)ccn1 (stereo unspecified) [Lafutidine]	0.104 ± 0.16	0.991 ± 0.016	0.123 ± 0.084	0.236 ± 0.086
Cc1cccc(CN2CCN(C(c3ccccc3)c3ccc(Cl)cc3)CC2)c1 (stereo unspecified) [Meclizine 2HCl]	0.0926 ± 0.14	0.994 ± 0.011	0.112 ± 0.074	0.286 ± 0.076
C[N+](C)(C)C[C@H](O)CC(=O)[O-] [L-carnitine (Levocarnitine)]	0.155 ± 0.24	0.993 ± 0.012	0.143 ± 0.11	0.244 ± 0.12
CNS(=O)(=O)CCc1ccc2[nH]cc(C3CCN(C)CC3)c2c1 [Naratriptan HCl]	0.0523 ± 0.025	0.9987 ± 0.0022	0.102 ± 0.063	0.176 ± 0.034
CC/C(=C(\c1ccccc1)c1ccc(OCCN(C)C)cc1)c1ccccc1 [Tamoxifen Citrate (Nolvadex)]	0.103 ± 0.13	0.989 ± 0.018	0.104 ± 0.09	0.235 ± 0.12

Two of the compounds above, field by field.
O=C(O)Cc1cc(I)c(Oc2ccc(O)c(I)c2)c(I)c1 [Tiratricol]
  fraction [1]: 0.0486 ± 0.057; fraction [2]: 0.981 ± 0.032; fraction of reporter-positive cells with nuclear (HeLa RPS2-YFP reporter): 0.116 ± 0.098; fraction of reporter-positive cells with nuclear (HeLa RPL29-GFP reporter): 0.188 ± 0.053
COc1ccc(O)cc1 [Mequinol]
  fraction [1]: 0.0988 ± 0.15; fraction [2]: 0.991 ± 0.015; fraction of reporter-positive cells with nuclear (HeLa RPS2-YFP reporter): 0.112 ± 0.11; fraction of reporter-positive cells with nuclear (HeLa RPL29-GFP reporter): 0.226 ± 0.068
